Among the data in paper PMC9182532, “The RHIM of the Immune Adaptor Protein TRIF Forms Hybrid Amyloids with Other Necroptosis-Associated Proteins” (Molecules, 2022) are binding values, retold here.

Results are given in words; binding and its absence hold for the method and conditions named.

For the assay, the target named is mCherry-RIPK1_(497–583) (human) (UniProt Q13546). In words: SDS-agarose gel electrophoresis (SDS-AGE); 5 µM alone or equimolar mixtures, kept in 8 M urea (monomer control) or dialysed overnight against 100 mM NaH2PO4, 20 mM Tris, 0.5 mM DTT, pH 8.0, with or without 2% SDS for 10 min; 1% agarose gel with 0.1% SDS; YPet and mCherry fluorescence imaged and overlaid; both purified.

B1: mCherry-RIPK1_(497–583) (domain or fragment, human, UniProt Q13546 497-583, looked up)
chain: MPSLHNIPVPETNYLGNTPTMPFSSLPPTDESIKYTIYNSTGIQIGAYNYMEIGGTSSSLLDSTNTNFKEEPAAKYQAIFDNTTSLT
notes: also called RIPK1 RHIM construct; source: E. coli BL21(DE3), solubilised in 8 M urea, purified (Ni-NTA); not shown: mCherry, N-terminal, kept
As for B1, the binding result is on record as “no binding (condition: with 2% SDS)”.
